Primary screen of a compound library

Protein sequences, listed by entry. Tags and fused reporters are not part of them. Residues count along the entry.
UniProt Q4DA54, 1-478: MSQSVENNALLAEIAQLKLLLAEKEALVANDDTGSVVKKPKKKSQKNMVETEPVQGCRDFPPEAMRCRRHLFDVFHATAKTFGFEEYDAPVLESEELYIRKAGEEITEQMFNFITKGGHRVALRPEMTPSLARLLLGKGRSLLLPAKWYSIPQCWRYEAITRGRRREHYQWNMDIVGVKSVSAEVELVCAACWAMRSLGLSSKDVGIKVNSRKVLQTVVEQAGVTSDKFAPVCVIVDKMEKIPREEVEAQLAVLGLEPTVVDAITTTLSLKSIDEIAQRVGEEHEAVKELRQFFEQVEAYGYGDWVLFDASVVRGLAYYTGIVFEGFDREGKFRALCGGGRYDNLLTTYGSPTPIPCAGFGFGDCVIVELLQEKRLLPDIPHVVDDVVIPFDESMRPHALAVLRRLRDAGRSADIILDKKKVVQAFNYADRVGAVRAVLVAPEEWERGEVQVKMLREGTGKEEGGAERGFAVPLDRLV

Measurements from “University of Dundee, Small-Polar-MMV Screening Library” (2021), ChEMBL document CHEMBL3988442.

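Enzyme assay of histidyl-tRNA synthetase; the read-out is not stated. Target: Histidine-tRNA ligase, Trypanosoma cruzi CL Brener (UniProt Q4DA54). Compounds at 30 µM. Higher reads as stronger inhibition (inferred: compounds with an IC50 in retests scored well above the rest). Of about 69,000 compounds tested this way, about 31 (0.045%) reached 50% or more in at least one test.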

The filed quantity is “Percent Effect” (%).
The record does not define 0% and 100%; most values in the screen are far below 50% and negative numbers occur (in some assays of this library far below -100).
The compounds are a random part of those screened.

Compound,Percent Effect
COCc1ccc(C(=O)N2CCC(c3cc4ncc(C)nc4[nH]3)C2)cc1 (stereo not drawn),6.084%
CCOCCCNC(=O)CN(c1cccc(F)c1)S(C)(=O)=O,5.325%
CCn1ccnc1CN1CCN(c2ncnc3ccsc23)CC1C (stereo not drawn),3.784%
Cn1c(=O)c2c(c3ccccc31)OC(C)(C)CC2,4.124%
CC(NCc1ccccn1)c1cc2c(cc1Br)OCCO2 (stereo not drawn),4.516%
CCn1cc(C(=O)Nc2ccc(C)cc2C(=O)OC)cn1,6.863%
O=C(NC1CCS(=O)(=O)c2ccccc21)c1cccs1 (stereo not drawn),1.266%
COCCN1CC2(CCCN(c3ncnc4[nH]cnc34)C2)CCC1=O (stereo not drawn),11.9%
CCN1C[C@@H]2[C@@H](OC)CCN(S(=O)(=O)c3ccccc3F)[C@@H]2C1,0.5464%
Fc1cccnc1O[C@@H]1CN(Cc2ccco2)[C@@H]2CCCO[C@@H]21,7.317%
CN(C)C(=O)Cn1cc(C#N)c(=O)c2cc(Br)ccc21,0%
CSC(C)C(=O)N(C)C1CCN(c2ccc(Cl)cc2)CC1 (stereo not drawn),4.516%
CCc1nccn1C1CCCN(C(=O)Cc2cn3ccccc3n2)C1 (stereo not drawn),5.639%
CCC[C@H]1CN(CCS(C)(=O)=O)C[C@@H]1NC(=O)c1cc(CC)on1,0%
Cn1cc(CN2CCC3(CC2)CC(=O)Nc2ccccc23)cn1,4.301%
Cc1ccc(NC(=O)NCCCc2n[nH]c(N)c2C#N)cc1,3.008%
Cc1ccc(NC(=O)c2ccc(CC3CC(=O)NC3=O)cc2)cc1O (stereo not drawn),5.155%
CC(C)CCC(=O)N1CCN(C(C)c2nnc(CC(C)C)o2)CC1 (stereo not drawn),-1.657%
CN(C(=O)NCC1(CN2CCOCC2)CCCCC1)C1CC1,2.212%
O=C(c1ccc(Cl)cc1)N1CCn2c(nn(-c3ccncc3)c2=O)C1,2.959%
Cn1cc(CN2CCCC3(CCN(C(=O)c4ccoc4)C3)C2)cn1 (stereo not drawn),2.956%
COC(=O)c1cc(C)nc(N2CCN(Cc3ccn(C(C)C)c3)CC2)n1,1.031%
Cc1nncn1CCN1C(=O)CC2(CCCC2)CC1=O,-0.8696%
Cc1n[nH]c(C)c1NC(=O)CN1CCCC1c1noc(C(C)C)n1 (stereo not drawn),-1.149%
CC(C)=CCN1C[C@H]2CC[C@@H]1CN(Cc1coc(C)n1)C2,5.978%
CCC(C)CNCC1(S(C)(=O)=O)CCOCC1 (stereo not drawn),7.389%
COc1cccc(-c2nccc(C3CCCN3C)n2)c1 (stereo not drawn),-0.7692%
Cc1cnccc1N1CCCN(C(=O)CCCS(N)(=O)=O)CC1,1.653%
Cc1ncc2c(n1)CN(Cc1nc(-c3ccsc3)no1)CC2,12.14%
Cc1cc(N[C@H](CO)COCc2ccccc2)n2nc(C)cc2n1,-2.899%
CN1CCOC(CNC(=O)Cc2ccccc2F)C1 (stereo not drawn),-3.817%
O=C(c1cn(-c2ccccc2)nn1)N1CCOCC(O)C1 (stereo not drawn),-0.8%
Cc1cccc(-n2nc(CC(C)C)nc2CCC(=O)N(C)C)c1,1.235%
O=C(c1cc(-c2ccco2)cs1)N1CCCC1,0%
CCOC(=O)c1coc(N2CCC(C(C)N3CCCC3)CC2)n1 (stereo not drawn),13.27%
O=C(Cn1ccc2ccc(F)cc21)NC[C@@H]1CCCN2CCCC[C@H]12,0.9901%
NC(=O)COc1ccc(CN2CC[C@@]3(O)CCCC[C@H]3C2)cc1Cl,4.242%
O=C(C[C@@H]1COC[C@H]2CN(CC3CC3)C[C@@H]12)N1CCCCO1,-3.448%
CCNC(=O)NC1CCN(c2ccc(S(=O)(=O)CC)cc2)CC1,0%
O=C(CN1CCCCC1Cn1cncn1)NCCc1ccc(F)cc1 (stereo not drawn),9.774%
Cc1ccc(CNC(c2ccc(F)cc2)c2nccn2C)o1 (stereo not drawn),6.173%
COCCN1CCCC2(CCC(=O)N2Cc2cccnc2)C1 (stereo not drawn),2.913%
C[C@@H]1CN(CC(C)(C)N2CCOCC2)C[C@@]1(O)C1CC1,3.191%
Nc1nc(C2CCN(C(=O)c3cncs3)CC2)cs1,4.865%
CC(=O)c1cccc(OCC(=O)NS(=O)(=O)c2ccc(C)s2)c1,4.511%
c1cncc(OC[C@]23COC[C@H]2CN(Cc2cccs2)C3)c1,6.952%
CCn1ncnc1CN1CCC(CNC(=O)c2cccc(C)c2)C1 (stereo not drawn),6.533%
Cn1cc(CCNC(=O)N2CCCc3c(F)cccc32)cn1,-4.712%
CCOC(=O)C1CN(S(=O)(=O)C2CC2)Cc2ncn(CC)c21 (stereo not drawn),-257.5%
O=C(c1ccncc1F)N1CC[C@@H]2CN(c3ncccn3)CCO[C@@H]2C1,0.9804%
COCCNC(=O)[C@]12COC[C@H]1CN(c1cc(OC)ncn1)C2,2.151%
O=C(CCC1CCN(Cc2ccncc2)CC1)Nc1ccccc1Cl,9.901%
CC(C)CNC(=O)Nc1cccc(OCC#N)c1,2.762%
COCc1nn(C(C)C)c2c1CCN(Cc1cccs1)C2,0.8264%
N#Cc1cnc2ccccc2c1N1CCC(C(=O)O)CC1,9%
Cc1nn(CC(C)C)cc1S(=O)(=O)N(C)Cc1nonc1C,6.977%
CCc1nccn1CC(=O)Nc1cccc(N2CCCC2)c1,6.818%
CCc1nc(CN(C(C)=O)C2CCN(Cc3ccccc3F)C2)no1 (stereo not drawn),6.286%
CCc1ocnc1C(=O)N1CCCC1c1noc(C)n1 (stereo not drawn),4.118%
CN1CCN(Cc2cccnc2)C2(CCN(C3CCOCC3)C2)C1=O (stereo not drawn),4.95%
COCCCn1ccc(NC(=O)NCc2cccc(N(C)C)c2)n1,6.077%
COc1ccc(CNC(=O)c2nn(C)c3c2CS(=O)(=O)CC3)cc1,1.739%
O=C(NCCCN1CCOCC1)c1cccc(OCc2ccccc2)c1,0%
Cc1nnc(CN2CCN(CC(O)c3ccccc3)CC2)o1 (stereo not drawn),5.764%
Cc1noc(C)c1C[S+]([O-])Cc1cn2cccc(C)c2n1 (stereo not drawn),-36.67%
COc1c(C2CCCN2C(=O)c2cccc(C(N)=O)c2)c(C)nn1C (stereo not drawn),4.151%
Cc1ccc(CN2CC[C@@H](NC(=O)c3cccnc3)[C@H](O)C2)o1,-0.4464%
COc1ccccc1-n1c(C)cc(CNC(=O)NC(C)C)c1C,6.098%
CN1CCN(Cc2noc(-c3cc(-c4ccc(F)cc4)n[nH]3)n2)CC1,2.564%
CC(C)(C)CN1CCC(c2nccnc2Nc2cnccn2)CC1,3.846%
COc1ccc(Br)cc1SCCC(N)=O,10.1%
CCCC(C)CN1CCC(n2cc(CCCO)nn2)CC1 (stereo not drawn),3.252%
CNS(=O)(=O)CC1CCCN1C(=O)c1ccc2cc[nH]c2c1 (stereo not drawn),11.69%
CCc1n[nH]c(C2CN(C(=O)c3cnns3)CCO2)n1 (stereo not drawn),6.015%
O=C1COc2cc(C(=O)NS(=O)(=O)c3cc(Cl)ccc3Cl)ccc2N1,1.734%
Cc1ccc(CN2Cc3ccccc3O[C@]3(CC[C@H](CO)CC3)C2)s1,14.44%
NC(=O)N1CCCC(C(=O)NCCOc2ccc(F)c(F)c2)C1 (stereo not drawn),4.902%
CN(C)CCNC(=O)CNC(=O)N1CCc2c([nH]c3ccc(Cl)cc23)C1,3.825%
COc1cc(NC(=O)N(C)CC2CC2)ncn1,1.961%
CC(C)c1nccn1-c1nccnc1C1CCCN1Cc1cccnc1 (stereo not drawn),4.615%
CC(C)N(C)Cc1cncc2c1CCN(C(=O)c1ccc[nH]1)C2,3.226%
CCCC1CCCN(C(=O)Nc2cccnc2OC)CC1 (stereo not drawn),7.143%
CCc1nnc(CS(=O)(=O)c2ccc(C)cc2)n1C,3.478%
CC(=O)N1CCCN(C(C(=O)O)c2ccc(C)cc2C)CC1 (stereo not drawn),0.431%
CCCC(=O)NC(C)c1nnc2n1CCC2 (stereo not drawn),3.429%

Some entries from above, unchanged:

Compound,Percent Effect
COc1cccc(-c2nccc(C3CCCN3C)n2)c1 (stereo not drawn),-0.7692%
Cc1nn(CC(C)C)cc1S(=O)(=O)N(C)Cc1nonc1C,6.977%
CCc1nc(CN(C(C)=O)C2CCN(Cc3ccccc3F)C2)no1 (stereo not drawn),6.286%
CCc1n[nH]c(C2CN(C(=O)c3cnns3)CCO2)n1 (stereo not drawn),6.015%
COc1c(C2CCCN2C(=O)c2cccc(C(N)=O)c2)c(C)nn1C (stereo not drawn),4.151%
Cc1ncc2c(n1)CN(Cc1nc(-c3ccsc3)no1)CC2,12.14%
Cc1nncn1CCN1C(=O)CC2(CCCC2)CC1=O,-0.8696%
CCOC(=O)C1CN(S(=O)(=O)C2CC2)Cc2ncn(CC)c21 (stereo not drawn),-257.5%
Cc1ccc(CNC(c2ccc(F)cc2)c2nccn2C)o1 (stereo not drawn),6.173%